At least one compound was matched to its structure with a doubt left.
Molecular target: T1, P2X7 receptor (Homo sapiens, UniProt Q99572)
T1 construct: host or cells: SH-SY5Y
T1 sequence (Q99572 1-595): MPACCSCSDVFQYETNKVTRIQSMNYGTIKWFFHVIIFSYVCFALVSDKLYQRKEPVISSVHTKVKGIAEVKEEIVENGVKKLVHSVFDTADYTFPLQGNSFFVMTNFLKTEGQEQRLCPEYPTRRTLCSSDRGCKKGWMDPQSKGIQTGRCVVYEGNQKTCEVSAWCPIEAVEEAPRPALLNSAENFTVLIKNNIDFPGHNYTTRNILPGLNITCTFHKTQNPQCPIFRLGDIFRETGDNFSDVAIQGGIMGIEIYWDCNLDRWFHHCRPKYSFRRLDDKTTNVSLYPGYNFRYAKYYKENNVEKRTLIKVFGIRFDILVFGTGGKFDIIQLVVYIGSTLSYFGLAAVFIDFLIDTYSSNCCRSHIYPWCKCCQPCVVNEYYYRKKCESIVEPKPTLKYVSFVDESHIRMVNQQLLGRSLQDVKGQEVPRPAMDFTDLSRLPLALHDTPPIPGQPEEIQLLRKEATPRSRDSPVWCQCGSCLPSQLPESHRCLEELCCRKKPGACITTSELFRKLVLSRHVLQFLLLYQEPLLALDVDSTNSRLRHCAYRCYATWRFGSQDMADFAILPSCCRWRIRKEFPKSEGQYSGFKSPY
Assay: P2X7 calcium mobilization assay, high throughput, antagonist activity (Example 4A)
Format: cell-based
Description: One day prior to the experiment, cells are plated at a density of 100,000 cells/well in a 96 well black/clear TC plate (Corning® Costar®, Sigma-Aldrich Co., St. Louis, Mo.). […] After one hour dye incubation, wells are rinsed once with 50 μL assay solution, and are then incubated for an hour at room temperature with 100 μL assay solution containing the test compound. […] After the one hour incubation, plates are transferred to a FLIPR^TETRA instrument (Molecular Devices, Sunnyvale, Calif.) for calcium mobilization analysis.
First, the average maximum relative fluorescent unit (RFU) response from the negative control wells (no agonist) is subtracted from the maximum response detected for each of the other experimental wells. Second, average maximum RFU response is calculated for the positive control wells (agonist wells).

[1] = 50% decrease in the fluorescence response of cells exposed to 80 μM of 2′(3′)-O-(4-benzoyl-benzoyl)adenosine 5′-triphosphate, determined as in Example 4A
[2] = fluorescence response of cells exposed to 80 μM 2′(3′)-O-(4-benzoyl-benzoyl)adenosine 5′-triphosphate, Example 4A

Compound | IC50 [1] | IC50 [2]
COC(=O)C1(Cc2cn3c(C(=O)NCC45CC6CC(CC(C6)C4)C5)cccc3n2)CCOCC1 [Compound 845, methyl 4-({5-[(adamantan-1-ylmethyl)carbamoyl]imidazo[1,2-a]pyridin-2-yl}methyl) tetrahydro-2H-pyran-4-carboxylate] | < 2000 nM | –
COC1CCCN(C(=O)c2cn3c(NC(=O)CC45CC6CC(CC(C6)C4)C5)cccc3n2)C1 (stereo not drawn) [Compound 391, 2-adamantan-l-yl-N-{2-[(3-methoxypiperidin-1-yl)carbonyl]imidazo[1,2-a]pyridin-5-yl}acetamide] | – | < 2000 nM
COCC1CCCCN1C(=O)c1cn2c(NC(=O)CC34CC5CC(CC(C5)C3)C4)cccc2n1 (stereo not shown) [Compound 395, 2-adamantan-1-yl-N-(2-{[2-(methoxymethyl)piperidin-1-yl]carboriyl}imidazo[1,2-a]pyridin-5-yl)acetamide] | – | < 2000 nM
CCOC(=O)C(Cc1cn2c(C(=O)NCC34CC5CC(CC(C5)C3)C4)cccc2n1)CC(F)(F)F (stereo not shown) [Compound 846, ethyl 2-({5-[(adamantan-1-ylmethyl)carbamoyl]imidazo[1,2-a]pyndin-2-yl}methyl)-4,4,4-trifluorobutanoate] | < 2000 nM | –

Reference: patent US8431593B2, “Heteroaryl amide derivatives” (H. Lundbeck A/S, priority 2006, dated 2013)
